Measured values as given in paper PMC11402782.
Results are given in words; binding and its absence hold for the method and conditions named. In cells and extracts the contact can be indirect. Some binding calls cover weakened binding; strength is not graded here. Tags and fused reporters may be left off the sequences shown.

The chains behind the UniProt entries cited, without tags or fusion partners.
UniProt Q93009: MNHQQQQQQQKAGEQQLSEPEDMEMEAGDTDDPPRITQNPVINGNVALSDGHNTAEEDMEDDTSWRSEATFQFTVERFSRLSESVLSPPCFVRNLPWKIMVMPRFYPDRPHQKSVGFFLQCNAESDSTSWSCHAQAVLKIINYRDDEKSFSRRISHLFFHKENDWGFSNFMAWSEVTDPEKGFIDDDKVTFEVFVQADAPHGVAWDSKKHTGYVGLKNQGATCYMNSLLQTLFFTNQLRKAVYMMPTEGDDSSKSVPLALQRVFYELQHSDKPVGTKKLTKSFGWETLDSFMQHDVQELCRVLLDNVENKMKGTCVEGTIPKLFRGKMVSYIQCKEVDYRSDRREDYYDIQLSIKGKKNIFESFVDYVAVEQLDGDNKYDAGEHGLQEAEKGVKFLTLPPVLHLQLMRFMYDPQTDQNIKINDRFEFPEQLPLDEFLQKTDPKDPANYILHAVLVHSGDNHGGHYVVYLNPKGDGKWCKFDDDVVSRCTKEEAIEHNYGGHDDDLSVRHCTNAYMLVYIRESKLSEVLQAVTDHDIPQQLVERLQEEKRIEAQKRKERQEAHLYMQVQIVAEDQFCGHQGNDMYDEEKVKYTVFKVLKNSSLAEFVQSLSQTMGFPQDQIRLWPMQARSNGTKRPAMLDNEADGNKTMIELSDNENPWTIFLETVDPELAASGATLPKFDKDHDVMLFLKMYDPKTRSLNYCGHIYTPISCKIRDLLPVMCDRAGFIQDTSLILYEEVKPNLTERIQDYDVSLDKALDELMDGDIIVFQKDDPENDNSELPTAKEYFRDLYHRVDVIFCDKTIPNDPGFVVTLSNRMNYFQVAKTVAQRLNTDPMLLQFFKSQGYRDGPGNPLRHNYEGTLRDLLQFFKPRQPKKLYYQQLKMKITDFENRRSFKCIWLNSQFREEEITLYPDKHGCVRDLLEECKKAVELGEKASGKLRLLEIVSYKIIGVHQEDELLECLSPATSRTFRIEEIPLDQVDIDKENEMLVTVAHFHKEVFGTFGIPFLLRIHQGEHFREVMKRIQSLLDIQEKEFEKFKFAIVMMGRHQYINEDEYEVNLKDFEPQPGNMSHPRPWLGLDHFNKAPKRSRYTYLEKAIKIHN

Target: T1, GFP–TOPORS WT (human) (UniProt Q9NS56)
T1 sequence: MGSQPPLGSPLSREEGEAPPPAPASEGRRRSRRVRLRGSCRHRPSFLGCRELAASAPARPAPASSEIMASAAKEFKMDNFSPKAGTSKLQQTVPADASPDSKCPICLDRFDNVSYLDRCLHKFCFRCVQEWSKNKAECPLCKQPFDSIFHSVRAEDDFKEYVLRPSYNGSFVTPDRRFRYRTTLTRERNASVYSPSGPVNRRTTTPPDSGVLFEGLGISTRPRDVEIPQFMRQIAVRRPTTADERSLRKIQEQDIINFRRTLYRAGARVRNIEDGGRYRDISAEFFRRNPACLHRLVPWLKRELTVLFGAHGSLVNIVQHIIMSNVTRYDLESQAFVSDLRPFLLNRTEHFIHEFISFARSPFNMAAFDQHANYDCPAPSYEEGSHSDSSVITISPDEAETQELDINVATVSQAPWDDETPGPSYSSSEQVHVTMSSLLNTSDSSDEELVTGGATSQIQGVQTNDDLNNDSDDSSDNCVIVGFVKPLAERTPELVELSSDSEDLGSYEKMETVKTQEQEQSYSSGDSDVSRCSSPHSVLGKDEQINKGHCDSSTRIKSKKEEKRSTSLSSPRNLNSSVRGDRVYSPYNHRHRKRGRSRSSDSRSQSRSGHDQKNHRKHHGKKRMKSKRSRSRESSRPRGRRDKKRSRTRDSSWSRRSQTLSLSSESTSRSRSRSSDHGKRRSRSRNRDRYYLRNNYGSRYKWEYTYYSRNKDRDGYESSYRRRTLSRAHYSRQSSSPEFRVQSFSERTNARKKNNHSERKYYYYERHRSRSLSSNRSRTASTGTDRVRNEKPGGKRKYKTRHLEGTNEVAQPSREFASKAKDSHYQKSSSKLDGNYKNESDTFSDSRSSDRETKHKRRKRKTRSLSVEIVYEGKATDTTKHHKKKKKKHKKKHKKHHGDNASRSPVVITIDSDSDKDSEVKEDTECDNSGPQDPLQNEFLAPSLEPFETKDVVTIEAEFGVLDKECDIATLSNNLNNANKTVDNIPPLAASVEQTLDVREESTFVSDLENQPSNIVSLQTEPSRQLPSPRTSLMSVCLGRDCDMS
Assay: co-IP; U2OS cells transfected with GFP expression plasmids, lysed in EBC buffer, GFP IP (GFP-Trap agarose, overnight, 4 °C); immunoblot

For “USP7 (endogenous, U2OS) (from UniProt Q93009 1-1102) (enzyme)”, which binding is on record?
Its binding is “binds”.
